# Source: PubChem BioAssay AID1469 (National Center for Advancing Translational Sciences (NCATS), 2008)
# The chains behind the UniProt entries cited, without tags or fusion partners. Where a name states a change or a piece, a line headed by the entry shows the natural chain unless it says otherwise.
# UniProt P10828: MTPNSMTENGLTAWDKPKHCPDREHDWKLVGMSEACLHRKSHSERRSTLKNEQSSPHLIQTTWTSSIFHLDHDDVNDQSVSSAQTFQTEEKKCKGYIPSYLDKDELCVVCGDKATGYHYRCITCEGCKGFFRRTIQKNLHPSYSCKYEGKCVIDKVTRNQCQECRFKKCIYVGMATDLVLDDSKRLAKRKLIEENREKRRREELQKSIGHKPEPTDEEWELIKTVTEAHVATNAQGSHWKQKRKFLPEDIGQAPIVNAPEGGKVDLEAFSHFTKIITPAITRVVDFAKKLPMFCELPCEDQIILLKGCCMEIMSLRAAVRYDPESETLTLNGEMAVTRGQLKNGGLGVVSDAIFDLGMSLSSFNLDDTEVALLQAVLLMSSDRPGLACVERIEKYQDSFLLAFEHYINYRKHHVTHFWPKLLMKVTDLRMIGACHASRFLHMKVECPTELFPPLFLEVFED
# Out of some 280,000 compounds screened, about 180 (0.064%) were called active. Inconclusive means that the source gave no clear call. Such entries were picked first, then a sample of the others. Calls follow the shape of the dose curve; as a rule, active = well fitted inhibition curve with a large enough effect; inconclusive = small, poorly fitted or top-dose-only effect, or effect the other way; inactive = flat fitted curve, though single readings scatter. Where the call is inconclusive, the potency comes from a doubtful curve fit. More than one record can exist for a structure, and the calls need not agree.
# Molecular target: Thyroid hormone receptor beta (Homo sapiens) (UniProt P10828)
# Test: qHTS for Inhibitors of the Interaction of Thyroid Hormone Receptor and Steroid Receptor Coregulator 2; also: nearly all actives have a fitted effect of over 50% in size;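 as to activity change, negative = inhibition: plate controls were bound peptide for no effect and peptide without receptor for full effect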
# Conditions: TRbeta-SRC2 peptide binding, fluorescence polarization, receptor liganded with 1 µM T3; series mostly up to 106 µM
# How it was run: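 Polarization signal, normalized between peptide-alone and full complex controls, measured compound effects on T3-liganded human TRb LBD (0.6 uM) binding 20 nM Texas Red SRC2 peptide after 5 hr.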
# Potency is read from the fitted curve at half-maximal effect.
Compound,Potency,"activity change, negative = inhibition"
Oc1ccc(N=Cc2sc3ccccc3c2Cl)cc1,active: 14.1 µM,–
CC(CCc1ccccc1)NC(=O)COC(=O)c1ccc(S(C)(=O)=O)c([N+](=O)[O-])c1 (configuration not stated),"inconclusive: 50.1 µM [inhibitor, partial curve]",–
CCOc1ccc(-c2nn(CC(=O)NC3CCCC3)c3c2cnc2ccc(C)cc23)cc1,inactive,–
COc1cccc2c1C(=O)c1c(O)c3c(c(O)c1C2=O)C[C@](O)(C(C)=O)C[C@H]3O[C@@H]1C[C@H](N)[C@H](O)[C@H](C)O1,active: 12.6 µM,–
Cc1nnc(SCC(=O)Nc2ccc(N(C)C)cc2)[nH]c1=O,"inconclusive: 31.6 µM [inhibitor, partial curve]",–
COCCNC(=O)CN1C(=O)COc2ccc(S(=O)(=O)N3CCCC3)cc21,"inconclusive: 20 µM [inhibitor, partial curve]",–
Cc1ccn2c(NC3CCCC3)c(-c3cccs3)nc2c1,inactive,–
O=C(O)C1CCCN1C(=O)Nc1ccc(F)cc1 (configuration not stated),"inconclusive: 0.158 µM [inhibitor, full curve, poor fit]",–
CCN(CC)CCNC(=O)c1ccc2c(c1NCCO)C(=O)c1ccccc1C2=O,inactive,–
O=C(/C=C/c1ccco1)NC(=S)Nc1cc(C(F)(F)F)ccc1N1CCOCC1,"inconclusive: 39.8 µM [inhibitor, partial curve]",–
O=[N+]([O-])c1ccc(-c2cn3nc(-c4ccccc4)c(-c4ccccc4)nc3n2)cc1,"inconclusive: 70.8 µM [inhibitor, single point]",–
COCCNC(=O)c1ccc2c(=O)n(Cc3ccco3)c(SCC(=O)NC3CCCC3)nc2c1,"inconclusive: 35.5 µM [inhibitor, partial curve, poor fit]",–
CCN(CC)c1ccc(/C=C(\C#N)c2nc(-c3cccs3)c(NC(C)=O)s2)cc1,"inconclusive: 50.1 µM [inhibitor, partial curve]",–
CCCc1ccc(OCC(=O)Nc2sc3c(c2C(=O)OCC)CCC(C(C)(C)C)C3)cc1 (configuration not stated),"inconclusive: 39.8 µM [inhibitor, partial curve]",–
Cc1ccc2oc(-c3cccc(NC(=O)/C=C/c4cccc([N+](=O)[O-])c4)c3C)nc2c1,"inconclusive: 25.1 µM [inhibitor, single point]",–
CC1=[N+](C)c2ccc3ccccc3c2C1(C)C,active: 31.6 µM,–
CCc1ccc2c(c1)c1nc(C)sc1n2CC,"inconclusive: 7.08 µM [inhibitor, full curve]",–
COc1cccc2c1C(=O)c1c(O)c3c(c(O)c1C2=O)C[C@@](O)(C(=O)CO)C[C@@H]3O[C@@H]1C[C@H](N)[C@H](O)[C@H](C)O1,active: 25.1 µM,–
COc1cccc(-c2ccc3c(N)c(C(=O)c4ccc(F)cc4)sc3n2)c1,inactive,–
CC(=O)OCCNc1cc(N2CCN(C)CC2)c2noc3c2c1C(=O)c1ccccc1-3,active: 44.7 µM,–
CS(=O)(=O)N1CCc2cc(C(=O)Nc3ccc(C(F)(F)F)cc3)ccc21,inactive,–
CCCC1=NN2C(=N)/C(=C\c3ccc(SCc4ccco4)o3)C(=O)N=C2S1,"inconclusive: 14.1 µM [activator, full curve]",–
COC(=O)C1(C)NC(c2ccco2)C2C(=O)N(c3ccc(F)cc3)C(=O)C21 (configuration not stated),inactive,–

Compound,Potency,"activity change, negative = inhibition"
CC1=NN(C(N)=S)C(=O)C1N=Nc1cccc2ccccc12 (configuration not stated),inactive,–
CCOC(=O)N1CCN(C(=O)COc2ccc(S(=O)(=O)NC3CCCCC3)cc2C)CC1,"inconclusive: 89.1 µM [inhibitor, partial curve, poor fit]",–
O=C(Nc1cc2c(cc1C(=O)c1ccccc1Cl)OCCO2)c1ccccc1,"inconclusive: 0.251 µM [activator, full curve]",–
Oc1ccc(NCc2ccccc2OCc2ccccc2F)cc1,active: 35.5 µM,–
CC(C)(C)N1C(=O)Cc2c1nc(N)c1c(N)nc(N3CCCCC3CO)c(C#N)c21 (configuration not stated),"inconclusive: 31.6 µM [inhibitor, full curve]",–
Cc1nc2ccccc2n2c(O)c(CC(=O)O)cc12,"inconclusive: 39.8 µM [inhibitor, partial curve]",–
COc1cc2nc(N3CCN(C(=O)C4CCCO4)CC3)nc(N)c2cc1OC (configuration not stated),inactive,–
CCCn1nc(NC(=O)c2ccccn2)c2cc3cc(C)ccc3nc21,"inconclusive: 70.8 µM [inhibitor, single point]",–
O=C(NNc1cc(N2CCOCC2)nc(N2CCOCC2)n1)c1ccc([N+](=O)[O-])cc1,"inconclusive: 17.8 µM [inhibitor, full curve]",–
OC[C@@H]1O[C@H](OC2[C@@H](O)[C@@H](O)C(O)O[C@@H]2CO)[C@H](O)[C@@H](O)[C@@H]1OC1O[C@H](CO)[C@@H](O)[C@H](O)[C@@H]1O (some centres not stated),inactive,–
COc1ccccc1N1C(=O)CC(N2CCc3ccccc32)C1=O (configuration not stated),"inconclusive: 79.4 µM [inhibitor, partial curve]",–
CCNc1ccc(C(=O)OCC(=O)NCCN2C(=O)CSC2=O)cc1[N+](=O)[O-],inactive,–
O=C1CC(c2ccccc2)=NN1c1nc(-c2ccccc2)cs1,"inconclusive: 50.1 µM [activator, partial curve]",–
COc1ccc(/C=N/N=C2/CC(C)(C)Cc3n[nH]c(=O)cc32)cc1,"inconclusive: 39.8 µM [inhibitor, partial curve]",–
CC(C)CCN(C(=O)Nc1ccccc1)C(C)c1cccs1 (configuration not stated),"inconclusive: 100 µM [inhibitor, partial curve, poor fit]",–
Cc1cccc(N=Nc2c(C)[nH]n(C(N)=S)c2=O)c1C,inactive,–
C[C@@H]1CC[C@@H]2C(=O)N3[C@@H](CC[C@@H](C)[C@@H]3c3ccc(-c4ccco4)cc3)C(=O)N2[C@H]1c1ccc(-c2ccco2)cc1,–,inactive: 3.03% [at 11.2 µM]
CC(=O)NC1C(=O)N(CC(C)C)c2ccccc21 (configuration not stated),inactive,–
O=C(CN1CCc2ccccc2C1)NCc1ccco1,"inconclusive: 50.1 µM [inhibitor, partial curve]",–
CCNC(=O)Oc1ccc[nH]c1=O,"inconclusive: 6.31 µM [inhibitor, full curve]",–
COc1ccc(-c2ccc(C(c3c(C)[nH][nH]c3=O)c3c(C)[nH][nH]c3=O)o2)c([N+](=O)[O-])c1,"inconclusive: 22.4 µM [inhibitor, full curve]",–
Oc1ccc2ccccc2c1C=NCc1cn2ccsc2n1,"inconclusive: 70.8 µM [inhibitor, single point]",–
COC(=O)N/N=C/c1cc(N=Nc2ccccc2Cl)ccc1O,"inconclusive: 39.8 µM [activator, partial curve]",–

# Some values from the results shown:
# COc1ccc(/C=N/N=C2/CC(C)(C)Cc3n[nH]c(=O)cc32)cc1 | Potency: inconclusive: 39.8 µM [inhibitor, partial curve]
# COc1ccccc1N1C(=O)CC(N2CCc3ccccc32)C1=O (configuration not stated) | Potency: inconclusive: 79.4 µM [inhibitor, partial curve]

# (list continues)

Compound,Potency,"activity change, negative = inhibition"
Nc1cc(N)c(OCC(F)(F)F)cc1OCC(F)(F)F,"inconclusive: 50.1 µM [inhibitor, partial curve]",–
O=C(Nc1ccc2nsnc2c1)N1CCCCC1,"inconclusive: 44.7 µM [inhibitor, partial curve]",–
O=C1NC2=C(CCc3ccccc32)C(c2ccc(Br)cc2)N1 (configuration not stated),"inconclusive: 25.1 µM [inhibitor, full curve]",–
COc1ccc2nc3cccc(OC)c3nc2c1,"inconclusive: 31.6 µM [inhibitor, full curve]",–
CCn1cc(S(=O)(=O)c2ccccc2)c(=O)c2cc(F)c(N3CCN(c4ccccc4)CC3)cc21,"inconclusive: 44.7 µM [inhibitor, partial curve]",–
Oc1ccc(N=Nc2cccc(C(F)(F)F)c2)cc1C=Nc1ccc(N2CCOCC2)cc1,"inconclusive: 56.2 µM [inhibitor, single point]",–
Cc1ccc(C(C)C)c(OCC(=O)Nc2cc(-c3nc4ccccc4[nH]3)ccc2C)c1,"inconclusive: 11.2 µM [inhibitor, partial curve]",–
CC(=O)Nc1ccc2c(c1)C(C)(C)C(C)N2C (configuration not stated),"inconclusive: 11.2 µM [activator, full curve]",–
Cc1ccc(NC(=O)CSc2nnc(-c3cccnc3)s2)cc1,"inconclusive: 39.8 µM [inhibitor, partial curve, poor fit]",–
CCN(CC)S(=O)(=O)c1cccc(C(=O)c2c(C)cc3ccccn23)c1,inactive,–
COc1cc(CNc2ccc(O)cc2)cc(Br)c1OCc1ccccc1,"inconclusive: 31.6 µM [inhibitor, partial curve]",–
O=C1C(Cl)=C(N2CCC(C(=O)O)CC2)C(=O)c2ccccc21,"inconclusive: 56.2 µM [inhibitor, single point]",–
CCOC(=O)Cc1cc(=O)n2[nH]c(C)c(-c3ccccc3)c2n1,"inconclusive: 22.4 µM [activator, full curve]",–
CC(C)C(C)(C#N)NC(=O)CSc1nc2scc(-c3ccco3)c2c(=O)n1-c1ccccc1 (configuration not stated),"inconclusive: 50.1 µM [activator, single point]",–
Cc1ccc(CN(Cc2ccco2)C(=O)COc2ccc(C(C)C)cc2)cc1,"inconclusive: 3.55 µM [activator, partial curve]",–
N#CC1=C(N)OC2=C(C(=O)CCC2)[C@]12C(=O)N(CC(N)=O)c1ccccc12,inactive,–
O=C(O)c1ccc(CN2C(=O)CSC2=S)cc1,"inconclusive: 12.6 µM [activator, full curve]",–
Cc1cc(N=Cc2c(O)ccc3ccccc23)no1,active: 50.1 µM,–
Cc1cc(-c2nn(-c3ccccc3)cc2/C=C2\SC(N)=NC2=O)ccc1OC(C)C,inactive,–
Cc1ccc(C(=O)n2c(N)nc3ccccc32)cc1,inactive,–
COc1cccc(/C(O)=C2\C(=O)C(=O)N(c3ccccn3)C2c2cccc(OC)c2OC)c1 (configuration not stated),"inconclusive: 22.4 µM [inhibitor, full curve, poor fit]",–

# Ordered by SMILES length (smallest number first): part of the list above.
Compound,Potency,"activity change, negative = inhibition"
Cc1nc2ccccc2n2c(O)c(CC(=O)O)cc12,"inconclusive: 39.8 µM [inhibitor, partial curve]",–
CCN(CC)S(=O)(=O)c1cccc(C(=O)c2c(C)cc3ccccn23)c1,inactive,–
Cc1ccc2oc(-c3cccc(NC(=O)/C=C/c4cccc([N+](=O)[O-])c4)c3C)nc2c1,"inconclusive: 25.1 µM [inhibitor, single point]",–
